Laboratory results as given in US4450165A, “Dihydropyridine compounds” (Yoshitomi Pharmaceutical Industries, Ltd., priority 1981, dated 1984).

System: coronary blood flow (left coronary artery)
Assay: Effect on coronary blood flow
Format: in vivo, mongrel dogs
Details: anesthetized dogs
Procedure: The perfused flow was measured by means of an electromagnitic flow-meter. The test compound was dissolved in an aqueous solution containing 15% ethanol and 15% polyethylene glycol, and injected into the afferent cannula. […] The duration was measured as the time for which the half maximum response remained.

For `COC(=O)C1=C(C)NC(C)=C(C(=O)OC)C1c1ccccc1[N+](=O)[O-]` [Nifedipine], the “Duration (time for which the half maximum response remained)” value was 2.0 min.
